These are yes or no findings as the source states them, for the method shown. In cells and extracts the contact can be indirect. Some entries that bind do so weakly or less than the wild type. For some of these results: Sequences can lack the tags named with a protein.
Assays:
[1] = biological target: HA-CXCR2-RLuc (human) (UniProt P25025); test: FRET or BRET; BRET1 in living HEK-293T cells co-transfected with HA-CXCR1-RLuc or HA-CXCR2-RLuc (donor) and β-arrestin 1-EYFP or β-arrestin 2-EYFP (acceptor); 5 μM coelenterazine H; cells stimulated with 100 nM CXCL8(1-77), [Cit5]CXCL8(1-77) or CXCL8(6-77) (kinetic measurements, RT) or with graded concentrations (dose-response, 15 min at 37 °C); ligand-induced BRET ratio (value of PBS-treated cells subtracted)
[2] = biological target: T1, HA-CXCR1-RLuc (human) (UniProt P25024); test: as above
T1 sequence: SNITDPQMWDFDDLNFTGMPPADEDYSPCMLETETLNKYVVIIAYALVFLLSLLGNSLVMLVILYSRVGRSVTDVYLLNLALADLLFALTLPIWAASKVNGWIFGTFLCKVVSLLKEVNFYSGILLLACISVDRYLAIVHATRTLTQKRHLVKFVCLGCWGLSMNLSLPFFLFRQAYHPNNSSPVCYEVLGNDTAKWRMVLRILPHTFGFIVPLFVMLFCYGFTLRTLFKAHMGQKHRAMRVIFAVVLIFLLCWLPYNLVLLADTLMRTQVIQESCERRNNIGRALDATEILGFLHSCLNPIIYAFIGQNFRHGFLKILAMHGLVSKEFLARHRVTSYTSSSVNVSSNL

Amino acid sequences for entries named in this document (tags omitted). Residues count along the entry.
UniProt P25025, residues 2-360: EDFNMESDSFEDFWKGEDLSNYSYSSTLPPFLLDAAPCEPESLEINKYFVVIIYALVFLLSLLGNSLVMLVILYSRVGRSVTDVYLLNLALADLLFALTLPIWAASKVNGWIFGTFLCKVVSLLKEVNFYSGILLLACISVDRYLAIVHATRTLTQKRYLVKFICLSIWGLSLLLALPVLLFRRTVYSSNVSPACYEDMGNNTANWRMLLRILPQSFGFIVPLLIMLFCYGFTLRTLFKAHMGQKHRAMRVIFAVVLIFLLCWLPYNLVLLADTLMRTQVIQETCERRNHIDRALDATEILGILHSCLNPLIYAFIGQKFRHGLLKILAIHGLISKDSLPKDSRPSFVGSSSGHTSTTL
UniProt P17870: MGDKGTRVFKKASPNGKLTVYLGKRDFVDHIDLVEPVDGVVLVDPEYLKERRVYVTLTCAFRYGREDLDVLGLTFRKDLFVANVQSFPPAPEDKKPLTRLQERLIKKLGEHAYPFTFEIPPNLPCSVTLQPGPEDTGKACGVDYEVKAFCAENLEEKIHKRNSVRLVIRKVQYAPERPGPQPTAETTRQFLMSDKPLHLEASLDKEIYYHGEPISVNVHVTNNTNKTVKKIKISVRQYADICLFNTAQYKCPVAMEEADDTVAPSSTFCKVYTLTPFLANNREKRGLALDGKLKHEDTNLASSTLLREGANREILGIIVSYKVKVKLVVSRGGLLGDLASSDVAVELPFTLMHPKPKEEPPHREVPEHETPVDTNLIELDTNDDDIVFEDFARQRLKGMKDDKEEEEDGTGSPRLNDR
UniProt P32120: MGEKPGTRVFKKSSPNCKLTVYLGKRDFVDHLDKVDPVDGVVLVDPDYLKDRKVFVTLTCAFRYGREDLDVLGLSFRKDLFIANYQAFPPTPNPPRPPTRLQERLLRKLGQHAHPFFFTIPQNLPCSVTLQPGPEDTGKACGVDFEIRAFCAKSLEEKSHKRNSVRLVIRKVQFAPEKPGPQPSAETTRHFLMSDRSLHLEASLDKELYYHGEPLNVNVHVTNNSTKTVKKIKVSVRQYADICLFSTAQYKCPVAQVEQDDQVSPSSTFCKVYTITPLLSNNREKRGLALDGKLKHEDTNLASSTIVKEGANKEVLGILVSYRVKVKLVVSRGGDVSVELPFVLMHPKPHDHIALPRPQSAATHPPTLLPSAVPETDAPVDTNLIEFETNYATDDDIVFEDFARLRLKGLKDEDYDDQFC

| Substance | binding [1] | binding [2] |
| --- | --- | --- |
| β-arrestin 1-EYFP (from UniProt P17870 1-418) | binds | binds |
| β-arrestin 2-EYFP (from UniProt P32120 1-420) | binds | binds |

From publication PMC6321254
